Data taken from article PMC12059206.
Results are given in words; binding and its absence hold for the method and conditions named. In cells and extracts the contact can be indirect. Some binding calls cover weakened binding; strength is not graded here. Where a sequence is shown, tags or fusion partners need not be part of it.

Chains of the proteins cited; added tags and fusions are not shown.
UniProt Q06413: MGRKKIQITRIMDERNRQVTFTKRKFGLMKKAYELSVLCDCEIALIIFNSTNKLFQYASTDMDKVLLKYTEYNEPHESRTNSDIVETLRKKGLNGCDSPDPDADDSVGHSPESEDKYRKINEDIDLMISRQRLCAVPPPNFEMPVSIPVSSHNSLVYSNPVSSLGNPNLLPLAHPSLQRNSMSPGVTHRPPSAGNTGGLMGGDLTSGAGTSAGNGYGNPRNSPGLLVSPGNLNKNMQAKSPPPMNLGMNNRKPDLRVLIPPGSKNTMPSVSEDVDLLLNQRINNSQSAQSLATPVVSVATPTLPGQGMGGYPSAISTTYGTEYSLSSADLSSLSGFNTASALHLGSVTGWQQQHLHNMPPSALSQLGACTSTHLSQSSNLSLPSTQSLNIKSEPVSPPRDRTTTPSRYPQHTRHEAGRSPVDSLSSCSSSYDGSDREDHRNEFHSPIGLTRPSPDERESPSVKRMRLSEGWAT

Target: T1, FLAG-tagged SENP1 (UniProt Q9P0U3)
T1 sequence: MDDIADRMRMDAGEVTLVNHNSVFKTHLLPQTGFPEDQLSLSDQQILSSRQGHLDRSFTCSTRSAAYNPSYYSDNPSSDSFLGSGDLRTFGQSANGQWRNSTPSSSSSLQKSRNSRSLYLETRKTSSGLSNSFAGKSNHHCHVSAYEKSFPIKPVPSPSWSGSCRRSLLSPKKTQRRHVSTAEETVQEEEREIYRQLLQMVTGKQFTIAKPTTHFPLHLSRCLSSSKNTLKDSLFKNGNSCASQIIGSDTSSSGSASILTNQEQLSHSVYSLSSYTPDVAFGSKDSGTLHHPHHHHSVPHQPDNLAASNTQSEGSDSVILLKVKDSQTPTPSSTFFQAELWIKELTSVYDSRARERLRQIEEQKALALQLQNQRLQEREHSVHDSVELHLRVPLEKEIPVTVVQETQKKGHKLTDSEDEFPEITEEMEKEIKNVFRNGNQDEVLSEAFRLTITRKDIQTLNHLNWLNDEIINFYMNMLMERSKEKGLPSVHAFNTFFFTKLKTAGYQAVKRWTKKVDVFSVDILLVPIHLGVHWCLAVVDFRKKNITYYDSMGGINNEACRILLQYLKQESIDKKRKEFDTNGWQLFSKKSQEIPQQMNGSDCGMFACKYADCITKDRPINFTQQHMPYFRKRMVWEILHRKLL
Test: co-IP; exogenously expressed proteins in HEK293T cells; NP-40 lysis buffer; supernatant incubated with anti-FLAG M2 Affinity Gel overnight at 4°C; washed four times; western blotting

MEF2C (from UniProt Q06413 1-473)
binding: binds
